Assay results from patent publication US9564604B2, “Fused polycyclic aromatic compounds, organic semiconductor material and thin film including the same, and method for producing an organic semiconductor device” (Nippon Kayaku Kabushiki Kaisha, priority 2012, dated 2017).

Assay: Evaluation of FET characteristics (top-contact FET device, in atmosphere)
Settings: channel length 50 μm, width 1.5 mm, 101 vacuum deposited, 110 and 112 spin coated

Structure (SMILES)	On/off ratio	Threshold voltage [V]
CCCCCCCCc1cc2c(=C(C#N)C#N)cc3c(cc(=C(C#N)C#N)c4cc(CCCCCCCC)sc43)c2s1 [Compound 110]	10^3	0.7
CCCCCCCCCCCCc1cc2c(=C(C#N)C#N)cc3c(cc(=C(C#N)C#N)c4cc(CCCCCCCCCCCC)sc43)c2s1 [Compound 112]	10^4	1.2
